Data taken from article doi:10.1101/2025.03.10.642361.
No constants are given. Whether binding was seen depends on the method and setting. In cells and extracts the contact can be indirect. Some results given as binding are weak or reduced against the parent protein; the word gives no strength.

Amino acid sequences for entries named in this document (tags omitted).
UniProt Q15386: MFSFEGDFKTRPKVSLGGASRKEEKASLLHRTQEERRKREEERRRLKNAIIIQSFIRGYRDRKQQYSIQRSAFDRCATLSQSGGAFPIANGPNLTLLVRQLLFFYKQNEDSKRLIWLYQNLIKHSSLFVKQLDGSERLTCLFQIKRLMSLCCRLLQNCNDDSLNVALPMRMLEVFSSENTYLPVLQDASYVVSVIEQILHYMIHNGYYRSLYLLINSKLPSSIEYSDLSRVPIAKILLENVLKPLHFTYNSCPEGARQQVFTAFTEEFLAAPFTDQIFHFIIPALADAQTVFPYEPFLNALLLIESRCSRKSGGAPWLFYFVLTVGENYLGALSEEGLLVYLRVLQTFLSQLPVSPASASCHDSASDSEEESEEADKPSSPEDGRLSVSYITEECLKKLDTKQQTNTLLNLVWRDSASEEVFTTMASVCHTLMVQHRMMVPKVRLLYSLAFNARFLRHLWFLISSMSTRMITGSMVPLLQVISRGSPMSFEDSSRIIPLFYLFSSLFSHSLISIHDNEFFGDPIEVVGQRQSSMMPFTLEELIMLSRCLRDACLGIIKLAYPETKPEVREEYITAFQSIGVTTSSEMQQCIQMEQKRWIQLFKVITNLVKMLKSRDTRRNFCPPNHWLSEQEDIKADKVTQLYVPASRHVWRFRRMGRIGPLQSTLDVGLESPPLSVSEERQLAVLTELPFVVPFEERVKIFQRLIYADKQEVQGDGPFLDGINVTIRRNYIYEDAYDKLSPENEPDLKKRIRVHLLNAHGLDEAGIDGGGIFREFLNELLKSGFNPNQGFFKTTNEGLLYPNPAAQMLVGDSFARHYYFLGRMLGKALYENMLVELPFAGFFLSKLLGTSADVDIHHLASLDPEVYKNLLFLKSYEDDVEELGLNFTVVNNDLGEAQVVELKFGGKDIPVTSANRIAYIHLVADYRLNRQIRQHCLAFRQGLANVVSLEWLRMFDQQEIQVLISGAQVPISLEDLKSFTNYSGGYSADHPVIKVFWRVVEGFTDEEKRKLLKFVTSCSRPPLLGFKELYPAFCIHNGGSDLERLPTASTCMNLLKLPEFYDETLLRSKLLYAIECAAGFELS

Molecular target: HA-mLST8 expressed in HT29 cells (human) (UniProt Q9BVC4)
Experiment: co-IP

binding: binds
Substance: E3 ubiquitin ligase UBE3C, endogenous (from UniProt Q15386 1-1083) (enzyme)
